Substitutions are numbered along the chain they refer to. For part of these data: A weaker result is weaker than the reference pair of the same experiment. Tags and fusion partners may be left off the protein sequences shown. For part of these data: Results from cells or extracts need not show a direct contact. For part of these data: Construct, isoform or probe ends are uncertain for at least one entry.

Series [1] deals with T1, PUM1 PUF GR repeat 8 (Homo sapiens) (UniProt Q14671).
T1 sequence: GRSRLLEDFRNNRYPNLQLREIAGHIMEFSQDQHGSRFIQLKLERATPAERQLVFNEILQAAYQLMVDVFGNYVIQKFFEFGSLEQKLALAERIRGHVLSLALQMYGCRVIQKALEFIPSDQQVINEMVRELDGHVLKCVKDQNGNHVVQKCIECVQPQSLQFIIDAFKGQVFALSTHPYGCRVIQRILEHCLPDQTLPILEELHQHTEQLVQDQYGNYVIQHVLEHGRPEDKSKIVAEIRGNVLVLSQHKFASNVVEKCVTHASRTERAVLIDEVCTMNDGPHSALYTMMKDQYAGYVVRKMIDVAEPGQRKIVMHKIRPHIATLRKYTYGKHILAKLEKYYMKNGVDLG
Put plainly: one hybrid. As to conditions: yeast three-hybrid; higher affinity than wild-type NRE; protein in cells; protein details: Gal4 activation domain fusion; variant of NRE.

The target of series [2] is T2, PUM1 PUF GR repeat 7 (Homo sapiens) (UniProt Q14671).
T2 sequence: T1 sequence with S254G, E258R, G297N, R301Q
The series is described as follows: one hybrid. As to conditions: yeast three-hybrid; higher affinity than wild-type NRE; protein in cells; protein details: Gal4 activation domain fusion; variant of NRE.

The target in series [3] is T3, PUM1 PUF domain wild type (NQ) (Homo sapiens) (UniProt Q14671).
T3 sequence: T1 sequence with G297N, R301Q
Put plainly: EMSA. As to conditions: 10 mM HEPES pH 8.0, 50 mM KCl, 1 mM EDTA, RT; purified recombinant protein; label: 5'-fluorescein. A general note: In EMSA bound probe runs differently from free probe, usually more slowly.

The target in series [4] is T4, PUM1 PUF CR (repeat 6 Cys12/Arg16) (Homo sapiens) (UniProt Q14671).
T4 sequence: T1 sequence with N218C, Q222R, G297N, R301Q
The series is described as follows: EMSA. As to conditions: striking specificity shift stated; purified recombinant protein; label: 5'-fluorescein.

The target of series [5] is T5, PUM1 PUF GR (repeat 6 Gly12/Arg16) (Homo sapiens) (UniProt Q14671).
T5 sequence: T1 sequence with N218G, Q222R, G297N, R301Q
Put plainly: EMSA. To be noted: striking specificity shift stated; purified recombinant protein; label: 5'-fluorescein.

For series [6], the target named is T6, PUM1 PUF GR repeat 5 (Homo sapiens) (UniProt Q14671).
T6 sequence: T1 sequence with C182G, Q186R, G297N, R301Q
The series is described as follows: one hybrid. As to conditions: yeast three-hybrid; higher affinity than wild-type NRE; protein in cells; protein details: Gal4 activation domain fusion; variant of NRE.

As for “CCGGCUAGCAAUCGUAUAUAUUAAUUUAAUAAAGCAUG [NREU1C]”, in series [1], the binding result is on record as “binds”.

As for “CCGGCUAGCAAUUCUAUAUAUUAAUUUAAUAAAGCAUG [NREG2C]”, the binding result in series [2] is on record as “binds”.

As for AUUGUAUAUA [NRE (Fl)], the binding result in series [3] is given as “binds”; in series [4], “binds more weakly”; in series [5] it was “binds more weakly”. As for “CCGGCUAGCAAUUGUCUAUAUUAAUUUAAUAAAGCAUG [NREA4C]”, in series [6], the binding result was “binds”.

The values are drawn from US20130323813, “PEPTIDES FOR THE SPECIFIC BINDING OF RNA TARGETS” (THE UNIVERSITY OF WESTERN AUSTRALIA, published 2013).
